Columns and labels:
[1] = system: SHSY-5Y cells; assay: Effects of alcohols on gene expression (array hybridization intensity) in SHSY-5Y cells, Study 1; type: cell-based, human; conditions: 100 mM ethanol
From the text: Hybridization strength is given a baseline of 1 and increased intensity is expressed in as a multiple of the baseline, i.e., 2-fold, 3-fold, 4-fold etc.
Column 1 lists the presumed functional class of the gene.
Columns are similar to Table 8.

[2] = system: human neuroblastoma SH-SY5Y cells; assay: Oligonucleotide array (Affymetrix GeneChip Hu6800) gene expression profile after ethanol
[3] = 72 h, 50, 100 or 150 mM ethanol, >=1.5 fold criterion and filtering

CCO [ethanol]
number of genes decreased in expression: Cell Signaling ([1]; acute, 2 hr): 9
number of genes decreased in expression: Cell division ([1]; acute, 2 hr): 0
number of genes decreased in expression: Cell structure ([1]; acute, 2 hr): 1
number of genes decreased in expression: Defense/homeostasis ([1]; acute, 2 hr): 3
number of genes decreased in expression: Gene/protein expression ([1]; acute, 2 hr): 4
number of genes decreased in expression: Metabolism ([1]; acute, 2 hr): 3
number of genes decreased in expression: Totals ([1]; acute, 2 hr): 23
number of genes decreased in expression: Unclassified ([1]; acute, 2 hr): 3
number of genes increased in expression by 1.5-fold or more: Cell Signaling ([1]; acute, 2 hr): 9
number of genes increased in expression by 1.5-fold or more: Cell division ([1]; acute, 2 hr): 1
number of genes increased in expression by 1.5-fold or more: Cell structure ([1]; acute, 2 hr): 0
number of genes increased in expression by 1.5-fold or more: Gene/protein expression ([1]; acute, 2 hr): 7
number of genes increased in expression by 1.5-fold or more: Metabolism ([1]; acute, 2 hr): 3
number of genes increased in expression by 1.5-fold or more: Totals ([1]; acute, 2 hr): 22
number of genes increased in expression by 1.5-fold or more: Unclassified ([1]; acute, 2 hr): 1
number of genes decreased in expression: Cell Signaling ([1]; chronic, 72 hr): 3
number of genes decreased in expression: Cell division ([1]; chronic, 72 hr): 0
number of genes decreased in expression: Cell structure ([1]; chronic, 72 hr): 1
number of genes decreased in expression: Defense/homeostasis ([1]; chronic, 72 hr): 0
number of genes decreased in expression: Gene/protein expression ([1]; chronic, 72 hr): 3
number of genes decreased in expression: Metabolism ([1]; chronic, 72 hr): 1
number of genes decreased in expression: Totals ([1]; chronic, 72 hr): 9
number of genes decreased in expression: Unclassified ([1]; chronic, 72 hr): 1
number of genes increased in expression: Cell Signaling ([1]; chronic, 72 hr): 13
number of genes increased in expression: Cell division ([1]; chronic, 72 hr): 0
number of genes increased in expression: Gene/protein expression ([1]; chronic, 72 hr): 3
number of genes increased in expression: Metabolism ([1]; chronic, 72 hr): 3
number of genes increased in expression: Totals ([1]; chronic, 72 hr): 22
number of genes increased in expression: Unclassified ([1]; chronic, 72 hr): 1
number of genes down regulated [2, 3]: 18
number of genes up regulated [2, 3]: 24
number of genes differentially regulated ([2]; 3 days treatment, 50, 100 or 150 mM ethanol): 42
